PubChem BioAssay AID743121 | NCATS, 2013

- Test: 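Genes whose silencing strengthens cell killing by camptothecin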 (primary screen)
- System: MDA-MB-231 cells, a human breast cancer line
- Knock-down reagent: single siRNA against human genes, 20 nM siRNA (0.8 pmol per well)
- Timing: 120 h (drug added 48 h after transfection, read 72 h later)
- Challenge: camptothecin 20 nM (about EC30) for 72 h; vehicle 0.1% DMSO in parallel plates
- Measurement: 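Cell viability by ATP luminescence (CellTiter-Glo) as % of non-targeting siRNA wells, and the log2 ratio of viability without drug over viability with camptothecin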
- Direction: log2 vehicle/camptothecin viability: higher = stronger sensitisation to camptothecin; viability with camptothecin and viability without drug: higher = more viable cells
- Hit rule: 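Active genes have an RSA gene-level p-value below 0.001, computed from the ratios of their separate siRNAs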
Shown is an unselected part of about 26,000 reagents tested. Of all reagents, 167 (0.63%) are marked active. 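Calls are per gene from RSA p-values that are not deposited; an individual active-marked siRNA can sensitise only weakly.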 Reagents against one gene are numbered here.

The opening 3 entries, to show the layout:
| gene | siRNA no. | log2 vehicle/camptothecin viability | viability with camptothecin (% of control) | viability without drug (% of control) | call |
| --- | --- | --- | --- | --- | --- |
| PDIA5 (protein disulfide isomerase family A member 5) | 1 | 0.177 | 99.9 | 113 | inactive |
| PDIA5 (protein disulfide isomerase family A member 5) | 2 | 0.122 | 76.7 | 83.4 | inactive |
| PDIA5 (protein disulfide isomerase family A member 5) | 3 | 0.486 | 77.7 | 109 | inactive |

Results, repeating the preview:
| gene | siRNA no. | log2 vehicle/camptothecin viability | viability with camptothecin (% of control) | viability without drug (% of control) | call |
| --- | --- | --- | --- | --- | --- |
| PDIA5 (protein disulfide isomerase family A member 5) | 1 | 0.177 | 99.9 | 113 | inactive |
| PDIA5 (protein disulfide isomerase family A member 5) | 2 | 0.122 | 76.7 | 83.4 | inactive |
| PDIA5 (protein disulfide isomerase family A member 5) | 3 | 0.486 | 77.7 | 109 | inactive |
| PDIA5 (protein disulfide isomerase family A member 5) | 4 | -0.167 | 88.7 | 79 | inactive |
| NPRL2 (NPR2 like, GATOR1 complex subunit) | 1 | 0.311 | 17.7 | 21.9 | inactive |
| NPRL2 (NPR2 like, GATOR1 complex subunit) | 2 | -0.491 | 105 | 74.5 | inactive |
| NPRL2 (NPR2 like, GATOR1 complex subunit) | 3 | -0.531 | 43.3 | 30 | inactive |
| NPRL2 (NPR2 like, GATOR1 complex subunit) | 4 | 0.108 | 94.7 | 102 | inactive |
| CELSR2 (cadherin EGF LAG seven-pass G-type receptor 2) | 1 | -0.19 | 38.9 | 34.1 | inactive |
| CELSR2 (cadherin EGF LAG seven-pass G-type receptor 2) | 2 | 0.17 | 65.2 | 73.4 | inactive |
| CELSR2 (cadherin EGF LAG seven-pass G-type receptor 2) | 3 | -0.214 | 86.5 | 74.5 | inactive |
| CELSR2 (cadherin EGF LAG seven-pass G-type receptor 2) | 4 | -0.527 | 79.2 | 55 | inactive |
| MKNK1 (MAPK interacting serine/threonine kinase 1) | 1 | -0.352 | 87.4 | 68.5 | inactive |
| MKNK1 (MAPK interacting serine/threonine kinase 1) | 2 | -0.449 | 94.6 | 69.2 | inactive |
| MKNK1 (MAPK interacting serine/threonine kinase 1) | 3 | -0.973 | 63.8 | 32.5 | inactive |
| MKNK1 (MAPK interacting serine/threonine kinase 1) | 4 | -0.303 | 89.6 | 72.6 | inactive |
| GNRH1 (gonadotropin releasing hormone 1) | 1 | -0.336 | 85.2 | 67.5 | inactive |
| GNRH1 (gonadotropin releasing hormone 1) | 2 | -0.201 | 97.8 | 85.1 | inactive |
| GNRH1 (gonadotropin releasing hormone 1) | 3 | -0.043 | 83.8 | 81.3 | inactive |
| PLK5 (polo like kinase 5 (inactive)) | 1 | -0.072 | 29.1 | 27.7 | inactive |
| PLK5 (polo like kinase 5 (inactive)) | 2 | 1.34 | 29.4 | 74.6 | inactive |
| PLK5 (polo like kinase 5 (inactive)) | 3 | -0.788 | 59.9 | 34.7 | inactive |
| PLK5 (polo like kinase 5 (inactive)) | 4 | -0.159 | 83.1 | 74.4 | inactive |
| ISLR2 (immunoglobulin superfamily containing leucine rich repeat 2) | 1 | -0.375 | 109 | 83.8 | inactive |
| ISLR2 (immunoglobulin superfamily containing leucine rich repeat 2) | 2 | -0.289 | 92.8 | 75.9 | inactive |
| ISLR2 (immunoglobulin superfamily containing leucine rich repeat 2) | 3 | -0.0523 | 67.3 | 64.9 | inactive |
| ISLR2 (immunoglobulin superfamily containing leucine rich repeat 2) | 4 | -0.509 | 95.6 | 67.2 | inactive |
| ATPSCKMT (ATP synthase c subunit lysine N-methyltransferase) | 1 | -0.0135 | 12.1 | 12 | inactive |
| ATPSCKMT (ATP synthase c subunit lysine N-methyltransferase) | 2 | 0.163 | 49.4 | 55.3 | inactive |
| ATPSCKMT (ATP synthase c subunit lysine N-methyltransferase) | 3 | -0.235 | 63.8 | 54.2 | inactive |
| HMBS (hydroxymethylbilane synthase) | 1 | -0.00545 | 46.2 | 46 | inactive |
| HMBS (hydroxymethylbilane synthase) | 2 | 0.108 | 79.1 | 85.3 | inactive |
| HMBS (hydroxymethylbilane synthase) | 3 | -0.571 | 77.2 | 52 | inactive |
| KIF3B (kinesin family member 3B) | 1 | -0.685 | 97.4 | 60.6 | inactive |
| KIF3B (kinesin family member 3B) | 2 | 0.0437 | 88.1 | 90.8 | inactive |
| KIF3B (kinesin family member 3B) | 3 | -0.43 | 90.8 | 67.4 | inactive |
| GPR55 (G protein-coupled receptor 55) | 1 | 1.18 | 47.1 | 107 | inactive |
| GPR55 (G protein-coupled receptor 55) | 2 | -0.0692 | 97.9 | 93.3 | inactive |
| GPR55 (G protein-coupled receptor 55) | 3 | 0.823 | 35.8 | 63.3 | inactive |
| GPR55 (G protein-coupled receptor 55) | 4 | -0.602 | 98 | 64.5 | inactive |
| USP18 (ubiquitin specific peptidase 18) | 1 | 0.472 | 72.9 | 101 | inactive |
| USP18 (ubiquitin specific peptidase 18) | 2 | 0.292 | 37.6 | 46.1 | inactive |
| USP18 (ubiquitin specific peptidase 18) | 3 | 0.034 | 79.9 | 81.8 | inactive |
| USP18 (ubiquitin specific peptidase 18) | 4 | 0.364 | 75.1 | 96.6 | inactive |
| USP18 (ubiquitin specific peptidase 18) | 5 | 0.401 | 47.7 | 63 | inactive |
| USP18 (ubiquitin specific peptidase 18) | 6 | 0.0354 | 50.1 | 51.4 | inactive |
| USP18 (ubiquitin specific peptidase 18) | 7 | -0.225 | 117 | 100 | inactive |
| USP18 (ubiquitin specific peptidase 18) | 8 | -0.0136 | 79.5 | 78.7 | inactive |
| PLPP1 (phospholipid phosphatase 1) | 1 | -0.414 | 65.3 | 49 | inactive |
| PLPP1 (phospholipid phosphatase 1) | 2 | -0.316 | 77.7 | 62.5 | inactive |
| PLPP1 (phospholipid phosphatase 1) | 3 | 0.139 | 45 | 49.5 | inactive |
| PLPP1 (phospholipid phosphatase 1) | 4 | 0.319 | 75.3 | 94 | inactive |
| CDCA8 (cell division cycle associated 8) | 1 | -0.385 | 35.9 | 27.5 | inactive |
| CDCA8 (cell division cycle associated 8) | 2 | -0.213 | 99.4 | 85.8 | inactive |
| CDCA8 (cell division cycle associated 8) | 3 | -0.24 | 117 | 99.3 | inactive |
| IDUA (alpha-L-iduronidase) | 1 | 0.36 | 65 | 83.4 | inactive |
| IDUA (alpha-L-iduronidase) | 2 | -0.159 | 103 | 92.3 | inactive |
| IDUA (alpha-L-iduronidase) | 3 | -0.178 | 106 | 94.1 | inactive |
| IDUA (alpha-L-iduronidase) | 4 | 0.0746 | 76 | 80 | inactive |
| MYLK2 (myosin light chain kinase 2) | 1 | -0.032 | 88.5 | 86.5 | inactive |
| MYLK2 (myosin light chain kinase 2) | 2 | -0.62 | 74.1 | 48.2 | inactive |
| MYLK2 (myosin light chain kinase 2) | 3 | 0.0575 | 50.5 | 52.5 | inactive |
| MYLK2 (myosin light chain kinase 2) | 4 | -0.375 | 68.1 | 52.5 | inactive |
| CHFR (checkpoint with forkhead and ring finger domains) | 1 | -0.256 | 56.4 | 47.2 | inactive |
| CHFR (checkpoint with forkhead and ring finger domains) | 2 | -0.556 | 93.5 | 63.6 | inactive |
| CHFR (checkpoint with forkhead and ring finger domains) | 3 | -0.224 | 107 | 92 | inactive |
| CHFR (checkpoint with forkhead and ring finger domains) | 4 | -0.505 | 53.7 | 37.9 | inactive |
| CCL2 (C-C motif chemokine ligand 2) | 1 | -0.498 | 82.2 | 58.2 | inactive |
| CCL2 (C-C motif chemokine ligand 2) | 2 | 0.442 | 59.3 | 80.5 | inactive |
| CCL2 (C-C motif chemokine ligand 2) | 3 | 0.0812 | 74.9 | 79.2 | inactive |
| CCL2 (C-C motif chemokine ligand 2) | 4 | 0.0178 | 64.9 | 65.7 | inactive |
| F2RL3 (F2R like thrombin or trypsin receptor 3) | 1 | -0.0858 | 99.5 | 93.8 | inactive |
| F2RL3 (F2R like thrombin or trypsin receptor 3) | 2 | -0.446 | 74.5 | 54.7 | inactive |
| F2RL3 (F2R like thrombin or trypsin receptor 3) | 3 | -0.703 | 35.4 | 21.7 | inactive |
| F2RL3 (F2R like thrombin or trypsin receptor 3) | 4 | -0.564 | 78.3 | 53 | inactive |
| BAK1 (BCL2 antagonist/killer 1) | 1 | -0.0417 | 33 | 32 | inactive |
| BAK1 (BCL2 antagonist/killer 1) | 2 | -0.266 | 53.4 | 44.4 | inactive |
| BAK1 (BCL2 antagonist/killer 1) | 3 | -0.247 | 79.9 | 67.3 | inactive |
| BAK1 (BCL2 antagonist/killer 1) | 4 | -0.217 | 108 | 92.7 | inactive |
| CLOCK (clock circadian regulator) | 1 | -0.581 | 63.4 | 42.4 | inactive |
| CLOCK (clock circadian regulator) | 2 | 0.507 | 7.94 | 11.3 | inactive |
| CLOCK (clock circadian regulator) | 3 | -0.147 | 83 | 74.9 | inactive |
| CLOCK (clock circadian regulator) | 4 | 0.205 | 67.2 | 77.4 | inactive |
| CCL8 (C-C motif chemokine ligand 8) | 1 | -0.366 | 100 | 77.9 | inactive |
| CCL8 (C-C motif chemokine ligand 8) | 2 | -0.386 | 71 | 54.3 | inactive |
| CCL8 (C-C motif chemokine ligand 8) | 3 | -0.0359 | 69 | 67.4 | inactive |
| CCL8 (C-C motif chemokine ligand 8) | 4 | -0.185 | 108 | 95.1 | inactive |
